Article PMC10406855

Sequences of proteins named here, by UniProt entry; tags and fusion partners are left off.
UniProt Q08211: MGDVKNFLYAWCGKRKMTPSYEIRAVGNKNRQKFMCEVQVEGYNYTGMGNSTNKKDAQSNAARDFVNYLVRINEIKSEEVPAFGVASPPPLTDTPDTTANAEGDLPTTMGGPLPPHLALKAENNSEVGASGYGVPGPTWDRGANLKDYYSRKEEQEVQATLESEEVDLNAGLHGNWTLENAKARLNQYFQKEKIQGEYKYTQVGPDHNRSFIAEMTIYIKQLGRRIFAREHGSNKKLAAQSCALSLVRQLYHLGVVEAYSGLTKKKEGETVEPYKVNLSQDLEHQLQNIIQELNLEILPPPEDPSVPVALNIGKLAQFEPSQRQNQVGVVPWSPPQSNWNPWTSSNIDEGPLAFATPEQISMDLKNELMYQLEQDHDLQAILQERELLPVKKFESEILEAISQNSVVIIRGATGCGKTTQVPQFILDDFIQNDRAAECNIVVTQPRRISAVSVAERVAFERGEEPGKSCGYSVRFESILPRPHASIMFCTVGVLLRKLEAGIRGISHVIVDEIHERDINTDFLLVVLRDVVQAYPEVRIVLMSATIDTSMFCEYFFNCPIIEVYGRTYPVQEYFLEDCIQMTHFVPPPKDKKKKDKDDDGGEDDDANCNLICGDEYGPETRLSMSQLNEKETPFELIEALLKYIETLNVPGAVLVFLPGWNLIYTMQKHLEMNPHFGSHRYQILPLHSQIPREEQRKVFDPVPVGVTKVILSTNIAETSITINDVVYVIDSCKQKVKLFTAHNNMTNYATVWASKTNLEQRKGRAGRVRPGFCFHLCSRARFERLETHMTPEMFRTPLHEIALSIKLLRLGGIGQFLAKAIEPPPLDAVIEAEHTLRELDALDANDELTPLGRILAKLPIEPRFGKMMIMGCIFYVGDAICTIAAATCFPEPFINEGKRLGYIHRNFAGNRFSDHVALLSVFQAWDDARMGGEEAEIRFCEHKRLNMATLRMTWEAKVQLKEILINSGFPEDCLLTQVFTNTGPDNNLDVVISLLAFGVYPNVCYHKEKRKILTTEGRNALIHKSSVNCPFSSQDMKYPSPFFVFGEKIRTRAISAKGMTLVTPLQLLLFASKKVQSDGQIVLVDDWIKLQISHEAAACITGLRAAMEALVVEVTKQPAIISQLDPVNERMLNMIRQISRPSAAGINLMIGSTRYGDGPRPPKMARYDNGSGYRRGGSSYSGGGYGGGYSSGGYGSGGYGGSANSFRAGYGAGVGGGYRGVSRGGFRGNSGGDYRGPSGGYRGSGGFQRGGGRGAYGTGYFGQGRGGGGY

Target: DHX9 (human (endogenous in BC cell lines)) (UniProt Q08211)
Assay: affinity purification with mass spectrometry; whole-cell lysate of BC cells precipitated with anti-DHX9 or control IgG and protein A/G agarose beads; differing band (30-40 kDa) analysed by MS

B1: RING finger and FYVE-like domain-containing protein 1 (RFFL) (protein, UniProt Q8WZ73 1-363)
chain: MWATCCNWFCLDGQPEEVPPPQGARMQAYSNPGYSSFPSPTGLEPSCKSCGAHFANTARKQTCLDCKKNFCMTCSSQVGNGPRLCLLCQRFRATAFQREELMKMKVKDLRDYLSLHDISTEMCREKEELVLLVLGQQPVISQEDRTRASTLSPDFPEQQAFLTQPHSSMVPPTSPNLPSSSAQATSVPPAQVQENQQANGHVSQDQEEPVYLESVARVPAEDETQSIDSEDSFVPGRRASLSDLTDLEDIEGLTVRQLKEILARNFVNYKGCCEKWELMERVTRLYKDQKGLQHLVSGAEDQNGGAVPSGLEENLCKICMDSPIDCVLLECGHMVTCTKCGKRMNECPICRQYVIRAVHVFRS
  binding: binds

These are yes or no findings as the source states them, for the method shown. In cells and extracts the contact can be indirect. These calls come from enrichment with a bait or labelling near it, and not all partners need be listed.
